{"source": "PubChem BioAssay AID1347076", "about": "(National Center for Advancing Translational Sciences (NCATS), 2019)", "note": "The whole screen tested about 400,000 compounds, of which about 13,000 (3.2%) were called active. Inconclusive means that the source gave no clear call. Such entries were picked first, then a sample of the others. The call rests on the fitted dose curve; in most records, active means well fitted cell-killing curve with a large enough effect; inconclusive means small, poorly fitted or top-dose-only effect, or effect the other way; inactive means flat fitted curve, though single readings scatter. Where the call is inconclusive, the potency comes from a doubtful curve fit.", "data": [{"assay": "qHTS assay for MDR1-selective chemotherapeutics: Primary screen using the drug-selected MDR subline cells KB-V1; further: nearly all actives have a fitted effect of over 60% in size; further: potency means the concentration at half of the fitted maximal effect; on activity change, negative = cytotoxicity: on the % scale 0 is the no-effect control and ±100 the full control effect", "conditions": "KB-V1 MDR cells viability, CellTiter-Glo, 72 h; activity change, negative = cytotoxicity: at 46.1 µM (top of the series)", "procedure,_shortened": "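Compound-treated KB-V1 multidrug-resistant cells, 72 h, 37 degrees C; viability by CellTiter-Glo. Fitted qHTS curves give the values.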", "values": [{"compound": "Cc1ccc(N2CC(C)Cn3c2nc2c3c(=O)n(CC(=O)O)c(=O)n2C)cc1", "note": "(stereo not drawn)", "Potency": "inconclusive: 29.1 µM [rising, single point]"}, {"compound": "Cc1c(NC(=S)SCc2ccccc2)c(=O)n(-c2ccccc2)n1C", "Potency": "inconclusive: 29.1 µM [rising, single point]"}, {"compound": "CCOc1ccccc1OCC(=O)N/N=C(\\C)Cc1ccc(OC)cc1", "Potency": "inconclusive: 16.4 µM [cytotoxic, single point]"}, {"compound": "CC1(c2ccccc2)CC(C)(C)N2C(=O)Cc3cccc1c32", "note": "(stereo not drawn)", "Potency": "inconclusive: 29.1 µM [cytotoxic, single point]"}, {"compound": "Cc1ccc(/C=N/NC(=O)c2ccc3c(c2)OCCO3)s1", "Potency": "inconclusive: 13 µM [cytotoxic, partial curve, poor fit]"}, {"compound": "CCOC(=O)c1ccccc1NS(=O)(=O)c1ccccc1", "Potency": "inconclusive: 25.9 µM [cytotoxic, single point]"}, {"compound": "CC(=O)c1ccc(NC(=S)Nc2ccc(Br)c(Cl)c2)cc1", "activity change, negative = cytotoxicity": "inactive: 14.9%"}, {"compound": "COc1ccc(O)cc1CN1CCN(c2ncc(Cc3ccccc3)cn2)CC1", "Potency": "inconclusive: 8.2 µM [cytotoxic, partial curve]"}, {"compound": "COCCCNC(=O)CSc1c2c(nc3ccc(Cl)cc13)CCCC2", "activity change, negative = cytotoxicity": "inactive: -10.3%"}, {"compound": "COc1ccc(NC(=O)CSc2nc(=O)n(CCN(C)C)c3c2CCCC3)cc1", "activity change, negative = cytotoxicity": "inactive: -3.04%"}, {"compound": "Cc1ccc(OCCn2cc(/C=C(\\C#N)C(=O)NCC3CCCO3)c3ccccc32)cc1", "note": "(stereo not drawn)", "Potency": "active: 20.6 µM"}, {"compound": "O=C(CSc1nnc2c3ccccc3c3ccccc3c2n1)Nc1ccccc1F", "Potency": "active: 3.66 µM"}, {"compound": "CCN(CC)CCCNc1nc(CN2CCOCC2)nc2sc3c(c12)CCC3", "activity change, negative = cytotoxicity": "inactive: -2.45%"}, {"compound": "COc1cccc(NC(=O)CN(C)C(=O)c2cc(-c3ccccc3)nc3ccccc23)c1", "Potency": "inconclusive: 20.6 µM [cytotoxic, partial curve]"}, {"compound": "CC(O)(c1cccc(F)c1)c1nc(/C=C/c2ccccc2)cs1", "note": "(stereo not drawn)", "activity change, negative = cytotoxicity": "inactive: -0.575%"}, {"compound": "CNC(=O)/C(C#N)=C/c1ccc(-c2ccc(OC)cc2[N+](=O)[O-])o1", "Potency": "inconclusive: 16.4 µM [cytotoxic, single point]"}, {"compound": "O=C(Nc1ccc(S(=O)(=O)NC2=NCCCCC2)cc1)c1ccc([N+](=O)[O-])s1", "Potency": "inconclusive: 16.4 µM [cytotoxic, partial curve, poor fit]"}, {"compound": "CCOc1cc(/C=C2\\SC(=N)N(c3nccs3)C2=O)ccc1OCCN1CCOCC1", "Potency": "active: 7.31 µM"}, {"compound": "COc1ccc(C(=O)N2CCC(C(N)=O)CC2)cc1S(=O)(=O)N1CCCC1", "Potency": "inconclusive: 29.1 µM [rising, single point]"}, {"compound": "Cc1cnccc1CN(C)C(=O)C1CCC(=O)N(Cc2ccccc2F)C1", "note": "(stereo not drawn)", "Potency": "inconclusive: 3.66 µM [rising, full curve, poor fit]"}, {"compound": "COc1cccc(N2C(=O)Nc3ccc(Br)cc3C2(O)C(=O)NCCN(C)C)c1", "note": "(stereo not drawn)", "Potency": "inconclusive: 16.4 µM [rising, partial curve, poor fit]"}, {"compound": "CC(=O)c1c(C)oc2ccc(N(C(=O)c3ccncc3)S(=O)(=O)c3ccccc3)cc12", "Potency": "inconclusive: 13 µM [cytotoxic, partial curve]"}, {"compound": "C=CCOc1c(Br)cc(CNn2c(C)n[nH]c2=S)cc1OC", "activity change, negative = cytotoxicity": "inactive: -2.78%"}, {"compound": "CCOC(=O)C(NC(=O)c1cccc(Cl)c1)(OCc1ccccc1)C(F)(F)F", "note": "(stereo not drawn)", "Potency": "inconclusive: 6.51 µM [cytotoxic, partial curve, poor fit]"}, {"compound": "CCCCN(C)C1=Nc2cccc3cccc1c23", "Potency": "inconclusive: 16.4 µM [cytotoxic, single point]"}, {"compound": "CCOc1cc(N2CCOCC2)c(OCC)cc1NC(=O)COC(=O)c1cc2ccccc2cc1O", "Potency": "inconclusive: 16.4 µM [cytotoxic, partial curve]"}, {"compound": "CS(=O)(=O)N1CC(C(=O)NC2CCCC2)Oc2ccc(Cl)cc21", "note": "(stereo not drawn)", "Potency": "inconclusive: 29.1 µM [cytotoxic, single point]"}, {"compound": "O=C(c1ccc(-c2ccc([N+](=O)[O-])cc2Cl)o1)N1CCOCC1", "Potency": "inconclusive: 20.6 µM [rising, single point]"}, {"compound": "CCc1ccccc1NC(=O)Nc1cnccn1", "activity change, negative = cytotoxicity": "inactive: -19.9%"}, {"compound": "C[C@H](CO)N1C[C@H](C)[C@@H](CN(C)S(C)(=O)=O)Oc2ccc(NC(=O)Nc3ccccc3)cc2C1=O", "activity change, negative = cytotoxicity": "inactive: 20.5%"}, {"compound": "CC(=O)Nc1ccc(NC(=O)c2ccc([N+](=O)[O-])cc2Cl)cc1", "Potency": "inconclusive: 3.26 µM [rising, full curve, poor fit]"}, {"compound": "Cc1ccsc1C(=O)NCC(c1cccs1)N1CCOCC1", "note": "(stereo not drawn)", "Potency": "inconclusive: 25.9 µM [cytotoxic, single point]"}, {"compound": "Cc1ccc(C(=O)N/C(=C\\c2ccccc2)C(=O)NCCCn2ccnc2)cc1", "Potency": "inconclusive: 7.31 µM [rising, partial curve, poor fit]"}, {"compound": "Clc1ccc(N/N=C/c2ccncc2)cc1Cl", "Potency": "inconclusive: 32.6 µM [cytotoxic, single point]"}, {"compound": "O=C(Nc1sc(-c2ccccc2)cc1C(=O)O)c1ccccc1", "activity change, negative = cytotoxicity": "inactive: -9.55%"}, {"compound": "Cc1ccc2cc3c(NC(=O)CC(C)C)nn(C)c3nc2c1", "Potency": "inconclusive: 4.11 µM [cytotoxic, full curve]"}, {"compound": "CC(C)CNC(=O)COC(=O)c1c2c(nc3ccccc13)/C(=C\\c1cccs1)CC2", "Potency": "inconclusive: 8.2 µM [cytotoxic, single point]"}, {"compound": "Cc1ccc(CNC(=O)N2CCN(S(=O)(=O)c3ccccc3)CC2)cc1", "activity change, negative = cytotoxicity": "inactive: -3.7%"}, {"compound": "CCOc1c(Cl)cc(C(=O)Nc2ccccc2C(=O)O)cc1Cl", "activity change, negative = cytotoxicity": "inactive: 11.5%"}, {"compound": "Cc1ccc(C)c(CNS(=O)(=O)c2c(C(=O)N3CCCC3)c(C)n(C)c2C)c1", "activity change, negative = cytotoxicity": "inactive: 0.692%"}, {"compound": "O=S(=O)(Nc1nc2ccccc2nc1Nc1ccc2c(c1)OCO2)c1ccccc1", "Potency": "active: 5.17 µM"}, {"compound": "Cc1ccc(NC2=CC(=O)CC(c3ccc(Cl)cc3)C2)cc1", "note": "(stereo not drawn)", "Potency": "inconclusive: 11.6 µM [cytotoxic, partial curve]"}, {"compound": "Cc1cccc(N2C(=O)CSC23C(=O)N(Cc2cccc(C(F)(F)F)c2)c2ccccc23)c1", "note": "(stereo not drawn)", "activity change, negative = cytotoxicity": "inactive: -2.33%"}, {"compound": "Cc1cccc(C)c1NC(=S)N=Nc1c(O)n(C)c2ccc(S(=O)(=O)N3CCOCC3)cc12", "Potency": "active: 3.66 µM"}, {"compound": "CSc1nc2sc3c(c2c(=O)n1-c1ccccc1C)CCCC3", "Potency": "inconclusive: 0.0058 µM [cytotoxic, full curve, poor fit]"}, {"compound": "O=C(/C=C/[C@H]1O[C@@H](n2cnc3c(NC(=O)c4ccccc4)ncnc32)[C@H](O)[C@@H]1O)NCCCN1CCCC1=O", "Potency": "inconclusive: 20.6 µM [cytotoxic, partial curve, poor fit]"}, {"compound": "O=C(CSc1nnc(CNC(=O)c2cccs2)o1)c1ccc(Cl)cc1", "activity change, negative = cytotoxicity": "inactive: -9.81%"}, {"compound": "CCC1(O)C(=O)OCc2c1cc1n(c2=O)Cc2cc3c(N)cccc3nc2-1", "note": "(stereo not drawn)", "Potency": "active: 1.46 µM"}, {"compound": "CC(C)C1C(=O)N(Cc2cn(CCC3OCCO3)nn2)CCS(=O)(=O)N1Cc1ccc(-c2ccc(F)cc2Cl)cc1", "note": "(stereo not drawn)", "activity change, negative = cytotoxicity": "inactive: 0%"}, {"compound": "Cc1ccc(NC(=O)c2c(-c3ccccc3)noc2C)nc1", "Potency": "inconclusive: 16.4 µM [cytotoxic, single point]"}, {"compound": "O=[N+]([O-])c1ccc2c(c1)CNc1ccccc1O2", "activity change, negative = cytotoxicity": "inactive: 0%"}, {"compound": "O[C@H]1CN(CC2CCCCC2)[C@@H](c2ccc(Cl)cc2)C[C@@H]1n1cc(-c2ccc(F)cc2)nn1", "Potency": "inconclusive: 32.6 µM [cytotoxic, single point]"}, {"compound": "N#C/C(=C\\c1cccnc1)C(=O)Nc1ccc(Cl)cc1", "Potency": "inconclusive: 29.1 µM [rising, single point]"}, {"compound": "CCCCNC(=O)C1(C)CCCCN1C(=O)c1ccc2c(c1)C(C)(C)CCC2(C)C", "note": "(stereo not drawn)", "Potency": "inconclusive: 20.6 µM [cytotoxic, single point]"}, {"compound": "O=C(COC(=O)C1CC2CCCC(C1)C2=O)NC(=O)c1ccccc1", "note": "(stereo not drawn)", "Potency": "inconclusive: 9.2 µM [rising, partial curve, poor fit]"}, {"compound": "CCOC(=O)C1=C(c2ccccc2)NC(SCC(=O)Nc2ccc(C)cc2)=C(C#N)C1c1ccco1", "note": "(stereo not drawn)", "Potency": "inconclusive: 20.6 µM [cytotoxic, single point]"}, {"compound": "CCOC(=O)c1cccc(NC(=O)CSc2nnc(-c3ccncc3)n2CCCOC)c1", "Potency": "inconclusive: 20.6 µM [cytotoxic, single point]"}, {"compound": "CCOc1ccc(Nc2nc3ccccc3n3c(CC)nnc23)cc1", "Potency": "inconclusive: 16.4 µM [cytotoxic, single point]"}, {"compound": "CC(C)NC(=O)Cn1c(SCC(=O)N2CCc3ccccc3C2)nc2ccccc21", "Potency": "active: 11.6 µM"}, {"compound": "Cc1onc(-c2ccccc2)c1C(=O)N/N=C/C(Br)=C/c1ccccc1", "Potency": "active: 14.6 µM"}, {"compound": "COCCn1c(Sc2ccc(C)cc2)nc2c1c(=O)[nH]c(=O)n2C", "Potency": "inconclusive: 5.17 µM [cytotoxic, partial curve, poor fit]"}, {"compound": "COc1ccc(-c2cc(C3CCN(Cc4cccc(C(F)(F)F)c4)CC3)[nH]n2)cc1", "Potency": "inconclusive: 23.1 µM [cytotoxic, single point]"}, {"compound": "CNC[C@@H]1OCc2cnnn2CCCC(=O)N([C@H](C)CO)C[C@H]1C", "Potency": "inconclusive: 20.6 µM [rising, partial curve, poor fit]"}, {"compound": "COc1ccc(-c2oc3ccc(-c4ccc5c(c4)OCO5)cc3c2-c2ccc(OC)nc2)cc1", "Potency": "inconclusive: 0.0058 µM [rising, full curve, poor fit]"}, {"compound": "COCCNC(=O)c1cc2c(c(-c3cccc(C#Cc4ccc(OC)c(OC)c4)c3)n1)[C@@H](CCO)N(S(=O)C(C)(C)C)C2", "note": "(stereo partly drawn)", "activity change, negative = cytotoxicity": "inactive: 0%"}, {"compound": "O=Nc1c(-c2c(O)[nH]c3cc(Br)ccc23)[nH]c2ccccc12", "Potency": "active: 20.6 µM"}, {"compound": "COc1ccc(CCNC(=O)c2nnc(Cc3ccc(Cl)cc3)o2)cc1OC", "Potency": "inconclusive: 29.1 µM [cytotoxic, single point]"}, {"compound": "CNC(=S)NNC(=O)CCn1nc(C)c(Br)c1C", "activity change, negative = cytotoxicity": "inactive: 0.0056%"}]}]}
